Experimental data taken from the supplement of paper PMC10403144.
This is one part of the list.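 Rule for the calls: active = mitochondrial OCR inhibition above 30% at 1 uM; inactive = 30% or less.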 Single values are uncertain, as repeats are few or missing.

test system: Toxoplasma gondii RH tachyzoites; assay: inhibition of mitochondrial O2 consumption rate (% inhibition (relative to pre-injection OCR and atovaquone/antimycin A control)); higher = stronger ETC inhibition; conditions: 1 µM; injection port (sequential injection order): A

SMILES | inhibition of mitochondrial O2 consumption rate
O=C(CCC1CCCCC1)Nc1cccc(-c2nnc(-c3ccco3)o2)c1 | inactive: 11.6
COc1ccc(-c2cc(NC(=O)c3ccc(F)cc3Cl)ccc2OC)cc1 | inactive: -2.56
CCC(=O)Nc1ccccc1C(=O)Nc1ccccn1 | inactive: 3.71
CS(=O)(=O)c1ccccc1C(=O)N(Cc1ccccc1)c1ccccc1 | inactive: -1.71
Cc1cnc(CCNC(=O)c2cc(-c3ccc(Cl)cc3)cs2)[nH]1 | inactive: -1.41
CC1=NN(c2nc3ccccc3s2)C(=O)C1Cc1cccc2ccccc12 (stereo not drawn) | inactive: 0.116
OCc1ccc(-c2cncc(Nc3cccc(Cl)c3)c2)cc1 | inactive: 3.83
c1csc(-c2cnc3sc(NCC4CCOCC4)nn23)c1 | inactive: -7.39
Cc1nc(-c2ccccn2)nc(N2CCC(Cc3ccccc3)C2)c1Cl (stereo not drawn) | inactive: -11.3
c1ccc(Oc2ccc(-c3cc(N4CCOCC4)[nH]n3)cc2)cc1 | inactive: -13.3
CC(=O)N(CCN(C(=O)c1ccc(F)cc1)c1ccccc1)c1ccccc1 | inactive: -2.87
CC(Oc1cccc(Cl)c1)C(=O)Nc1ccc2oc(-c3ccncc3)nc2c1 (stereo not drawn) | inactive: 2.77
CCCn1nnc(NC(=O)COc2ccc(C3CCCCC3)cc2)n1 | inactive: -0.344
N=C(N)c1ccc(-c2cc(-c3ccccc3)on2)cc1 | inactive: -5.08
C[C@H](C(N)=O)N1CCCC[C@H]1c1ccc(OCc2cccc(F)c2)cc1 | inactive: -12.8
O=C(c1ccco1)N(CCCn1ccnc1)c1nc2c(Cl)cccc2s1 | inactive: 2.01

same assay, conditions: 1 µM; injection port (sequential injection order): B

SMILES | inhibition of mitochondrial O2 consumption rate
CC[C@@H]([C@H](C)O)n1ncn(-c2ccc(N3CCN(c4ccc(OC[C@@H]5CO[C@@](Cn6cncn6)(c6ccc(F)cc6F)C5)cc4)CC3)cc2)c1=O | inactive: -6.81
Nc1ncnc2c1ncn2C[C@@H](O)[C@@H](O)C(=O)O | inactive: -2.86
Nc1nc(N)c2c3c(sc2n1)CN(Cc1ccccc1)CC3 | inactive: 6.74
C[C@]1(O)C[C@@H](c2nc(-c3ccc4ccc(-c5ccccc5)nc4c3)c3c(N)nccn32)C1 | inactive: -0.673
CCN(CC)C(=O)N1CCN(C)CC1 | inactive: -5.34
CCC(C)NC(=O)c1ccc(NC(=O)C2(c3ccccc3)CCCC2)cc1 (stereo not drawn) | inactive: -3.43
COc1ccc(-c2cnc3ccc(NCc4ccc(S(N)(=O)=O)cc4)nn23)cn1 | inactive: -1.6
NCCC(O)C(=O)N[C@@H]1C[C@H](N)[C@@H](OC2O[C@H](CN)[C@@H](O)[C@H](O)[C@H]2O)[C@H](O)C1OC1O[C@H](CO)[C@@H](O)[C@H](N)[C@H]1O (stereo partly drawn) | inactive: 1.45
CCOc1ccc(-c2nc(CNCCc3ccc(F)cc3)cs2)cc1 | inactive: -10.6
COCC(C)NC(=O)CSc1ncnc2sc(-c3ccccc3)cc12 (stereo not drawn) | inactive: -2.1

Sorted by number of heavy atoms (rising): some entries from above
SMILES | inhibition of mitochondrial O2 consumption rate
CCOc1ccc(-c2nc(CNCCc3ccc(F)cc3)cs2)cc1 | inactive: -10.6
C[C@]1(O)C[C@@H](c2nc(-c3ccc4ccc(-c5ccccc5)nc4c3)c3c(N)nccn32)C1 | inactive: -0.673
NCCC(O)C(=O)N[C@@H]1C[C@H](N)[C@@H](OC2O[C@H](CN)[C@@H](O)[C@H](O)[C@H]2O)[C@H](O)C1OC1O[C@H](CO)[C@@H](O)[C@H](N)[C@H]1O (stereo partly drawn) | inactive: 1.45

same assay, conditions: 1 µM; injection port (sequential injection order): C

SMILES | inhibition of mitochondrial O2 consumption rate
Cc1nn(C)cc1C(C)Nc1nncc(-c2ccc(C(F)(F)F)cc2)n1 (stereo not drawn) | inactive: -18.1
COc1ccc(CN2CCOc3ccc(C(C)(O)CN(C)C)cc3C2)cc1C (stereo not drawn) | inactive: 1.56
CC(C)(C)n1nc(Cc2ccc(F)c(Cl)c2)c2c(N)ncnc21 | inactive: -1.48
Nc1ncnc2c1ncn2[C@@H]1O[C@H](COS(=O)(=O)NC(=O)c2ccccc2O)[C@@H](O)[C@H]1O | inactive: -27
Nc1ccc(C(=O)Nc2ccc(-c3nc4ccccc4o3)cc2)cc1 | inactive: -4.03
COc1ccc(-c2cnc3cnc(-c4cccc(OC(C)C)c4)cn23)cc1 | inactive: -10.1
FC(F)(F)c1cc(NCCc2ccccc2)nc(-c2ccccn2)n1 | inactive: -13.1
COC(=O)c1cccc2oc(-c3cccc(OC)c3NC(=O)c3cc(-c4ccccc4)on3)nc12 | inactive: -21.2
CC1=Nc2ccc(Cl)cc2C(c2ccccc2)N1CCNC(=O)CN(C)C (stereo not drawn) | inactive: -14.4
COc1ccc2nccc(NC(=O)C3CCN(CCc4ccc(Cl)cc4)CC3)c2n1 | inactive: 6.55
CCN(CC)CCCN1CCN(C(=O)c2cccc(-c3noc(C(F)(F)F)n3)c2)CC1 | inactive: -24.3
Nc1nc2ccc(-c3cncc(Oc4ccc(F)cc4)c3)cc2[nH]1 | inactive: -19.1
